Laboratory results as given in patent publication US20200323962A1, “LIPOPHILIC PEPTIDE PRODRUGS” (YISSUM RESEARCH DEVELOPMENT COMPANY OF THE HEBREW …, priority 2017, published 2020).
At least one peptide structure holds a part that was inferred or is arguable (an end, a ring closure or a residue). Some of these results come from one statement about several compounds together. *1 amine or outer side, *2 acyl side, *3 side chain or, on linkers, in order; H or OH if unused. Where a SMILES comes first, the peptide text is derived from it. [ ]: non-standard residue; d: D form. X3 = CCCCCCOC(=O)N=C(NCCC[C@H](C(=O)[*:2])N(C)[*:1])NC(=O)OCCCCCC; NMeA = CN[C@@H](C)C(=O)O

System: Caco-2 cells
Assay: Caco-2 permeability study (Examples 1-4)
Conditions: for Caco-2 permeability: qualitative

In the case of `C[C@@H]1NC(=O)[C@H](C)NC(=O)[C@@H](C)NC(=O)[C@H](C)N(C)C(=O)[C@H](C)N(C)C(=O)[C@H](C)NC1=O` [compound 4], the “Caco-2 permeability” value is reported as “extremely high Caco-2 permeability”.

With `C[C@@H]1NC(=O)[C@H](C)NC(=O)[C@@H](C)N(C)C(=O)[C@H](C)NC(=O)[C@H](C)N(C)C(=O)[C@H](C)NC1=O` [peptide 1] the “Caco-2 permeability” value was “extremely high Caco-2 permeability”.

In the case of `C[C@@H]1NC(=O)[C@H](C)NC(=O)[C@@H](C)N(C)C(=O)[C@H](C)N(C)C(=O)[C@H](C)NC(=O)[C@H](C)NC1=O` [peptide 2], the “Caco-2 permeability” value is reported as “extremely high Caco-2 permeability”.

With `C[C@@H]1NC(=O)[C@H](C)N(C)C(=O)[C@H](C)NC(=O)[C@H](C)N(C)C(=O)[C@H](C)NC(=O)[C@@H](C)NC1=O` [peptide 3] the “Caco-2 permeability” value was “extremely high Caco-2 permeability”.

`CCCCCCOC(=O)N=C(NCCC[C@@H]1C(=O)NCC(=O)N[C@@H](CC(=O)OC)C(=O)N[C@@H](C)C(=O)N(C)[C@@H](C)C(=O)N[C@@H](C)C(=O)N1C)NC(=O)OCCCCCC` [peptide 5P, c(*r(Hoc)2GD(OMe)A*AA)] (cyclo(A[NMeA]A[X3]GD(OMe))) was tested, and the “Papp AB” value (Table 3, n = 3) was 0.6 ± 0.27 cm/s × 10^6.
